# Results reported in the odorant receptor screen of Mainland et al. (2015).
# “And” between values parts separate entries of the source, which are not always exact repeats. Equal entries are not always repeated. The list shows a part of the results. Each value is one well over the wells without odorant, computed here; the data are noisy.
# Assays:
# Test in all cases: odorant receptor activation (CRE luciferase / Renilla) (fold of no-odor wells); higher = more activation
# Details in all cases: 100 µM
# [1] = tested on: OR6J1 R121H/T124A/R226H/P250S/L274S/V279L clone 1714
# OR6K2 clone 1041 = tested on: OR6K2 clone 1041
# [2] = tested on: OR6K3 P228S/P248L clone 1045
# OR6K3 clone 1485 = tested on: OR6K3 clone 1485
# OR6K6 clone 1348 = tested on: OR6K6 clone 1348
# OR6K6 clone 1392 = tested on: OR6K6 clone 1392
# OR6M1 clone 1182 = tested on: OR6M1 clone 1182
# [3] = tested on: OR6N1 I194T/F245L/Q261R/R293H clone 1038
# OR6N2 clone 1027 = tested on: OR6N2 clone 1027
# OR6P1 clone 1034 = tested on: OR6P1 clone 1034
SMILES,odorant receptor activation [1],odorant receptor activation (OR6K2 clone 1041),odorant receptor activation [2],odorant receptor activation (OR6K3 clone 1485),odorant receptor activation (OR6K6 clone 1348),odorant receptor activation (OR6K6 clone 1392),odorant receptor activation (OR6M1 clone 1182),odorant receptor activation [3],odorant receptor activation (OR6N2 clone 1027),odorant receptor activation (OR6P1 clone 1034)
CCCCOC(C)=O [butyl acetate],1.25,1.19,1.01,0.916,0.844,0.165,0.899,1,0.739,1.27
CCOc1cc(C=O)ccc1O [ethyl vanillin],0.779,1.35,1.01 and 1.13,1.1 and 2.79 and 1.47,0.881 and 1.89 and 1.23,1.15 and 1.31,1.79 and 1.21,1.74 and 0.865,0.725 and 1.04,1.03 and 0.923
CCC(C)=O [2-butanone],0.988,3.49,2.38,1.11,0.858,1.06,1.15,5.05,2.87,3.06
CS [methanethiol],1.9,1.14,1.22,0.817,0.904,0.673,1.01,1.24,1.12,1.18
